Taken from: PubChem BioAssay AID1508588 (Peter MacCallum Cancer Centre, 2020)
Screen: 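Genome-wide search for knock-downs that heighten vemurafenib action in melanoma cells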 (primary screen). System: human WM266.4 melanoma cells (BRAF V600 mutant). Reagents: siRNA pool against human genes, 40 nM. Timing: 96 h from transfection to read-out. Treatment: vemurafenib 300 nM (about IC25), added 48 h after transfection, for 48 h; comparison arm got DMSO vehicle only. Read-out: 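Ratios to non-targeting siRNA for cell gain, counted as DAPI nuclei after minus before drug and averaged over two replicates, and for absorbance-read medium lactate per cell; both binned into fold-change classes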. Direction: cell gain with vemurafenib: higher = more cell gain than with non-targeting siRNA; lactate per cell with vemurafenib: higher = more lactate made per cell. Hit rule: 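Enhancement is called by pairing each knock-down's vehicle-arm and drug-arm fold-change classes for viability or glycolysis; which class combinations qualify is not given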. Meaning of the calls: active = enhances vemurafenib effect; inactive = no enhancement seen.
This is one part, drawn at random, of about 18,000 deposited reagents. Of all reagents, 790 (4.4%) are marked active. 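Calls rest on a combination of fold-change classes in drug and vehicle arms, not all shown here.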 A number with no mark means an inactive call. Reagents against one gene are numbered here.

gene symbol | pool no. | cell gain with vemurafenib | lactate per cell with vemurafenib
SIX6 | 1 | 0.39 | 1.23
GP9 | 1 | 0.32 | 1.2
BTBD9 | 1 | 0.96 | 0.5
CHRM4 | 1 | 1.03 | 0.7
KLHL23 | 1 | 0.42 | 1.16
KRTAP5-4 | 1 | 0.48 | 1.06
OR1J4 | 1 | 0.49 | 0.44
NBL1 | 1 | 0.8 | 0.96
CUL4B | 1 | 0.35 | 1.52
TLX3 | 1 | 0.52 | 0.96
TTC16 | 1 | 0.86 | 0.67
CEP72 | 1 | -0.08 | 1.96
QTMAN | 1 | 0.39 | 0.55
GPR158 | 1 | 0.09 (active) | 0.48
MYOM1 | 1 | 0.57 | 1.48
AGRP | 1 | 0.34 | 0.78
TNFRSF12A | 1 | 0.99 | 0.63
CAV1 | 1 | 1.1 | 0.74
FCGRT | 1 | 0.96 | 0.83
DNAJB4 | 1 | 0.67 | 0.74
KIF3C | 1 | 0.35 | 1.08
RPP25L | 1 | 0.27 | 2.24
APLP2 | 1 | 0.59 | 0.3
IFI27L1 | 1 | 0.92 | 0.82
TNFRSF8 | 1 | 0.91 | 0.28
PHF2 | 1 | 0.03 | 1.09
APRT | 1 | 0.77 | 0.9
HFE | 1 | 0.44 | 1.15
HOMER2 | 1 | 0.87 | 1.07
OBSL1 | 1 | 0.04 | 3.12
CTH | 1 | 0.8 | 0.5
RASGRP3 | 1 | 0.18 | 1.96
CTSZ | 1 | 0.86 | 1.32
RAB31 | 1 | 0.23 | 2.4
KRTAP10-2 | 1 | 0.7 | 1
RANGRF | 1 | 0.74 | 0.94
CSH2 | 1 | 0.9 | 0.96
CROT | 1 | 0.39 | 1.54
CMTR2 | 1 | 0.54 | 0.42
CERKL | 1 | 0.71 | 0.68
ZFPL1 | 1 | 0.4 | 0.9
SLC9C1 | 1 | 0.01 | 0.93
SEMA4D | 1 | 0.8 | 0.78
SEMA4D | 2 | 0.89 | 0.89
PDHA2 | 1 | 0.54 | 1.3

Single entries from above:
Value for GPR158 under “cell gain with vemurafenib”: 0.09 (active)
Under “cell gain with vemurafenib”, SEMA4D #2 shows 0.89
For “cell gain with vemurafenib”, NBL1 has 0.8
Under “cell gain with vemurafenib”, KRTAP5-4 has 0.48
SLC9C1, lactate per cell with vemurafenib: 0.93
Entry for CSH2 under “cell gain with vemurafenib”: 0.9

More reagents follow.
gene symbol | pool no. | cell gain with vemurafenib | lactate per cell with vemurafenib
ASMT | 1 | 0.92 | 0.16
NAT8B | 1 | 0.74 | 0.97
ETV2 | 1 | 0.85 | 1.36
ZFYVE9 | 1 | 0.71 | 1.55
CSGALNACT1 | 1 | 0.31 | 1.6
OR5D16 | 1 | 0.68 | 0.65
HACD3 | 1 | 0.4 | 0.88
GPHN | 1 | 0.89 | 0.62
PAX6 | 1 | 0.79 | 1.09
CNTN6 | 1 | 0.54 | 1.11
B3GNT5 | 1 | 0.81 | 0.4
DIRAS2 | 1 | 0.75 | 0.84
BCL2L2 | 1 | 0.81 | 0.58
SEPTIN1 | 1 | 0.95 | 0.4
ZNF878 | 1 | 1.42 | 0.52
NKAIN2 | 1 | 1.01 | 0.66
BRI3BP | 1 | 1.23 | 0.41
CYBC1 | 1 | 0.54 | 1.38
ZNF500 | 1 | 1.08 | 0.34
ITPKA | 1 | 0.68 | 0.52
CFAP20 | 1 | 1.15 | 0.9
MTERF2 | 1 | 0.83 | 0.96
ABCB9 | 1 | 0.59 | 0.54
RHBDD1 | 1 | 0.66 | 0.94
NOS1AP | 1 | 0.29 | 1.49
NSA2 | 1 | -0.16 | 4.27
ENOPH1 | 1 | 0.6 | 0.82
BLMH | 1 | 0.69 | 0.7
GPR39 | 1 | 0.1 | 1.44
ZXDA | 1 | 0.69 | 0.84
FRMD4A | 1 | 0.62 | 0.63
HSPA8 | 1 | 0.55 | 0.6
PPA2 | 1 | 0.3 | 1.17
PRUNE1 | 1 | 0.79 | 1
LINC00207 | 1 | 0.38 | 1.54
TDRD12 | 1 | 0.27 | 0.4
TXNRD2 | 1 | 0.25 | 2.21
BMERB1 | 1 | 0.77 | 0.74
RHBDL3 | 1 | 0.47 | 2.15
